This test deals with Salmonella enterica serovar Typhimurium SL1344. Briefly: bacterial growth OD600 after 18 h with compound and polymyxin B; higher = more bacterial growth (less inhibition). The following applies: 50 µM, Mueller-Hinton broth.

The results in this text go back to the supplement of paper PMC12889115.

Some of the results follow. Values are raw readings; no control value is given beside them.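 Primary screen: polymyxin B was added at a level permeabilizing Salmonella outer membranes while sparing inner membranes. DMSO wells, both with and without polymyxin B, established maximum growth. Plate-to-plate variation meant each plate was ranked on its own, and the lowest-OD600 compounds were selected as hits.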

Consider `O=C(N[C@H]1CCCCNC1=O)c1coc(COc2cccc(C(F)(F)F)c2)n1`, for which the “bacterial growth OD600” value (polymyxin B 1 µg/mL) is 0.916.

Take `CCCC(=O)NC1CC(C)(C)Cc2nc(N3CCOCC3)ncc21` (stereo not given): the “bacterial growth OD600” value (polymyxin B 1 µg/mL) amounted to 0.881.

Take `CC(NC(=O)c1cc(Cl)ccc1OC1CCN(C2CCCC2)CC1)c1ccncn1` (stereo not given): where the note is “polymyxin B 1 µg/mL”, the “bacterial growth OD600” value came out at 1.02.

With `O=C(NCc1cccnc1)c1cc(Cn2cnc3ccccc32)on1`, the “bacterial growth OD600” value (polymyxin B 1 µg/mL) worked out at 1.24.

Take `O=C(NCc1cccnc1)c1ccc(N2CCC(NCc3csc(Cc4ccccc4)n3)CC2)cc1`: for the setting “polymyxin B 0.75 µg/mL”, the “bacterial growth OD600” value came out at 0.736.

Take `CC(Cn1cncn1)NC(=O)c1cc(COc2ccc3c(c2)CCCC3)on1` (stereo not given): where the note is “polymyxin B 1 µg/mL”, the “bacterial growth OD600” value was determined as 0.987.

As to `CSCCC(=O)N1CCC(C(=O)Nc2ccc(-c3cccc(C)c3)cc2)CC1`, the “bacterial growth OD600” value (polymyxin B 1 µg/mL) is 1.

On to `OCC1CCCN(c2ccc(-c3nc(COc4ccccc4)no3)cn2)C1` (stereo not given), for which the “bacterial growth OD600” value (polymyxin B 1 µg/mL) is 0.718.

Consider `Cc1cc(CNC(=O)c2ccc3oc(Cc4ccccc4)nc3c2)nn1C`, for which, where the note is “polymyxin B 1 µg/mL”, the “bacterial growth OD600” value is 1.05.

For `Cc1ccc(C(=O)N2CCOc3ccc(CN4C[C@@H](C)O[C@@H](C)C4)cc3C2)cc1N1CCNC1=O`, the “bacterial growth OD600” value (polymyxin B 0.75 µg/mL) is 0.977.
